Results published in PubChem BioAssay (EPA / NIEHS).
The inconclusive results got no clear call from the source; some entries with a clear call stand among them for comparison. For some assays here: Where the call is inconclusive, the potency comes from a doubtful curve fit. Calls of active or inactive are those of the source. The calls were made as follows: active = hit-call score of the fitted dose curve at least 0.9, where 1 is the maximum; inconclusive = response in the unintended direction; inactive = score below 0.9.

Amino acid sequences for entries named in this document (tags omitted). A change or cut given only in a name is not applied to a line headed by its entry.
UniProt P29323: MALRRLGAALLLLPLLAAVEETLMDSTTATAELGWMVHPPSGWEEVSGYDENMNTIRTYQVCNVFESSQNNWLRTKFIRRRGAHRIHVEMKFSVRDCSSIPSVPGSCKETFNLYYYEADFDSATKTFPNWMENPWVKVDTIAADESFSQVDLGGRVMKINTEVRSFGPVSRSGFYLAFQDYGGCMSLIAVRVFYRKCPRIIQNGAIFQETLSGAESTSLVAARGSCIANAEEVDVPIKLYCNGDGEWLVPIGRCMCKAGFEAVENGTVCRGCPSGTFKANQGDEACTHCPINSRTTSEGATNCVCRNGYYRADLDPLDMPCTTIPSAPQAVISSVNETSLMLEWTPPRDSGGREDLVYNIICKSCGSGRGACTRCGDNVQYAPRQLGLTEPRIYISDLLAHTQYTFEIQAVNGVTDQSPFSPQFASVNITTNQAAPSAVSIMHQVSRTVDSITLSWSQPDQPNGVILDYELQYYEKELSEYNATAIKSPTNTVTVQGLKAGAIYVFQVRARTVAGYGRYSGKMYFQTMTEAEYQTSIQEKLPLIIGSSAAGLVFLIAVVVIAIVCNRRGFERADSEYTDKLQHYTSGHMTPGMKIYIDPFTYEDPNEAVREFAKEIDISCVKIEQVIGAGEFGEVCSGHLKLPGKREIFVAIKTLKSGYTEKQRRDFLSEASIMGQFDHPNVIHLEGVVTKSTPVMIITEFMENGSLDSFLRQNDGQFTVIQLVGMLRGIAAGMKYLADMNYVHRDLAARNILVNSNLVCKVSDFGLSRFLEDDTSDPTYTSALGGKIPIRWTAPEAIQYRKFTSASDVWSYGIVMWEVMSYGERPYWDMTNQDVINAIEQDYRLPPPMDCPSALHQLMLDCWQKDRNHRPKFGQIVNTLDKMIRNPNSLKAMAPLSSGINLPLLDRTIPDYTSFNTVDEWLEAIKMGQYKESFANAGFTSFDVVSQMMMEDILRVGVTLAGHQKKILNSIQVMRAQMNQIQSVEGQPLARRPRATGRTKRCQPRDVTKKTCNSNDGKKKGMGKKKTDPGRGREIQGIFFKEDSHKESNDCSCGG
UniProt P19643, whole entry, looked up: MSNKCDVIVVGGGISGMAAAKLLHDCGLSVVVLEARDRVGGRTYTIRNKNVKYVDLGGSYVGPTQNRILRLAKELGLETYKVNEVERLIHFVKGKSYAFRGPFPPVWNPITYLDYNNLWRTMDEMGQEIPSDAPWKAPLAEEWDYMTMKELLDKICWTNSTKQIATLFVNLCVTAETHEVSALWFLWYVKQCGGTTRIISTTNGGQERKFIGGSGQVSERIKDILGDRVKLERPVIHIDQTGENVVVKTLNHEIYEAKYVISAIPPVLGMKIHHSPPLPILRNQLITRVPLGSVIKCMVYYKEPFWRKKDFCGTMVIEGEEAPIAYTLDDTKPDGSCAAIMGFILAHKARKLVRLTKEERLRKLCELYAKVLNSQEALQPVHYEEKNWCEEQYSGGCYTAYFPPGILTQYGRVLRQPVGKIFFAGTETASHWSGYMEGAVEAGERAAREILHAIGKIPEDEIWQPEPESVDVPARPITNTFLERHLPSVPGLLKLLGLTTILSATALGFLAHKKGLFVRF
UniProt P29317, whole entry, looked up: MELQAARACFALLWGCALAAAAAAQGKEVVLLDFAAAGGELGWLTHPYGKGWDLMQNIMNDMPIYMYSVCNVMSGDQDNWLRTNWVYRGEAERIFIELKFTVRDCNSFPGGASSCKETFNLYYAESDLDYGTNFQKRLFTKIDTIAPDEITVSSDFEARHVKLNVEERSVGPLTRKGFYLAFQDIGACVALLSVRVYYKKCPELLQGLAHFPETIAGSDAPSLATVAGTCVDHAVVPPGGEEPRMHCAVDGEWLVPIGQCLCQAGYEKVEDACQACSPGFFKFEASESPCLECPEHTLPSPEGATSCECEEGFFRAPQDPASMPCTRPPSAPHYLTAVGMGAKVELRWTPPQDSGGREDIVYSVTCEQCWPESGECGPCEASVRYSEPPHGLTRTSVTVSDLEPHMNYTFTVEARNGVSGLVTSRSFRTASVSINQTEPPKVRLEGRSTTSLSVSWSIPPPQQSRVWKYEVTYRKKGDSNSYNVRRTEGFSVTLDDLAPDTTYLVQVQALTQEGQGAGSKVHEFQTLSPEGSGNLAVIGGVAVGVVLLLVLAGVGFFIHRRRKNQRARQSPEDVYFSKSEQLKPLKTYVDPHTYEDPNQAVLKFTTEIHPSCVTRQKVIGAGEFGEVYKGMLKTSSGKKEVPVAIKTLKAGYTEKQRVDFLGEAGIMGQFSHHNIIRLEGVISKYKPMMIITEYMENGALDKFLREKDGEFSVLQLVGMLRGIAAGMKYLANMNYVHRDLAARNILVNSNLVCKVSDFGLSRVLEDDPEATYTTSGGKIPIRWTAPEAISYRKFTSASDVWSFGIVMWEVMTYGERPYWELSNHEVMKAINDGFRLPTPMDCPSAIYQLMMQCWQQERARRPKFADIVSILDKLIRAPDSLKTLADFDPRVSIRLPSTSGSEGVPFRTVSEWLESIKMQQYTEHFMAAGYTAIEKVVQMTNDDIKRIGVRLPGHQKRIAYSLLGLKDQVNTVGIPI
UniProt P60484: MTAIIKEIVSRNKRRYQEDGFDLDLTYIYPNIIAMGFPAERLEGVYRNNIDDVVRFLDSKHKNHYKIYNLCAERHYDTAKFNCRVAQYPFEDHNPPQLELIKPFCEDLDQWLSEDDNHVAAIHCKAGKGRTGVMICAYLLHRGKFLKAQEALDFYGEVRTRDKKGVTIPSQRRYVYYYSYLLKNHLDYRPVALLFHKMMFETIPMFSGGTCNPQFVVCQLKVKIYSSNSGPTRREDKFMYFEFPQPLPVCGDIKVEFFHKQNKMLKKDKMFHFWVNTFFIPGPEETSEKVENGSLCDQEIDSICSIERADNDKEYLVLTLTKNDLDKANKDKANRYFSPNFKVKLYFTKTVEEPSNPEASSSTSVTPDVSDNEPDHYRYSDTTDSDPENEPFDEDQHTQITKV
UniProt P11362, whole entry, looked up: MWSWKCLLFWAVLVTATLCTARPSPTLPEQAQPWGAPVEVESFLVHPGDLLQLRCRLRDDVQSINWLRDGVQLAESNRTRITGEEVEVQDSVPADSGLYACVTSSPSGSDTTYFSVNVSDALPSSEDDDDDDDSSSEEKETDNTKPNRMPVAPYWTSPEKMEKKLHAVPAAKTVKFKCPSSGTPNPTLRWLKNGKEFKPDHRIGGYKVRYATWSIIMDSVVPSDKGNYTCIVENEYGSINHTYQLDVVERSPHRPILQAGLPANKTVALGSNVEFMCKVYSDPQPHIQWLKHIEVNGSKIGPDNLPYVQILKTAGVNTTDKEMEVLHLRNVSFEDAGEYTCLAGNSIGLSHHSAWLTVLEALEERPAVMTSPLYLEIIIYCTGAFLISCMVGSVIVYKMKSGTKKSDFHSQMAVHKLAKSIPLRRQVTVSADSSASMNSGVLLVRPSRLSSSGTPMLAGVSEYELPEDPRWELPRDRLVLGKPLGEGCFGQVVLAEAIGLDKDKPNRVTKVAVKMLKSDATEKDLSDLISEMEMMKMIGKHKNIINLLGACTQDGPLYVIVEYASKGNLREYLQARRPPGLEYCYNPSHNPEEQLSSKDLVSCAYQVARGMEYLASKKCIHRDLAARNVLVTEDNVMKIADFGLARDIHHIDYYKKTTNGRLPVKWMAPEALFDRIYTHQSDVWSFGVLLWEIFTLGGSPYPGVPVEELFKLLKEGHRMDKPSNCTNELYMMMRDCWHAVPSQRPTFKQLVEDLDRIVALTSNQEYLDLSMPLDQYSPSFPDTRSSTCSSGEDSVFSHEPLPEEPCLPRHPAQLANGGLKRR
UniProt P35353: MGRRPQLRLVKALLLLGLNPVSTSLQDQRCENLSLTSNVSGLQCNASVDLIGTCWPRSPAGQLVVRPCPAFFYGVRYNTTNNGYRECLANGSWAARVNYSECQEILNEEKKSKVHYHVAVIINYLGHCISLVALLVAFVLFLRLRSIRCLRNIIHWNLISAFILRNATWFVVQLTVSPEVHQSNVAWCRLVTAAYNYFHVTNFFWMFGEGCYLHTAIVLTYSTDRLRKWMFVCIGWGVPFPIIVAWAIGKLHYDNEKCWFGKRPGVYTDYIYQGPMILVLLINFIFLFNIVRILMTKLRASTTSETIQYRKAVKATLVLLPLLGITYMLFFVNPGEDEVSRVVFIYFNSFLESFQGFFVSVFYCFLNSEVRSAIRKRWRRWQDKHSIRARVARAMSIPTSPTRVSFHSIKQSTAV
UniProt P20789, whole entry, looked up: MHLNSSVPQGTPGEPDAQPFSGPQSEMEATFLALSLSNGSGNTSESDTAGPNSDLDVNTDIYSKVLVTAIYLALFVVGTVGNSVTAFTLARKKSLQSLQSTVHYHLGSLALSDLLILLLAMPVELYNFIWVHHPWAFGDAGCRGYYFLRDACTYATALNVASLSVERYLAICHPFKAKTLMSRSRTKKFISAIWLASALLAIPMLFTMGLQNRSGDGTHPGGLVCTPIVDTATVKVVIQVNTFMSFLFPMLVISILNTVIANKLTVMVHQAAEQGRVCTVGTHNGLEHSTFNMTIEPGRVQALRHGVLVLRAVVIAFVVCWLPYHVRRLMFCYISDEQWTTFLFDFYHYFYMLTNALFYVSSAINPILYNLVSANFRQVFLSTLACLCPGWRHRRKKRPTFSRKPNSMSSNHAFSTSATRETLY
UniProt Q02763: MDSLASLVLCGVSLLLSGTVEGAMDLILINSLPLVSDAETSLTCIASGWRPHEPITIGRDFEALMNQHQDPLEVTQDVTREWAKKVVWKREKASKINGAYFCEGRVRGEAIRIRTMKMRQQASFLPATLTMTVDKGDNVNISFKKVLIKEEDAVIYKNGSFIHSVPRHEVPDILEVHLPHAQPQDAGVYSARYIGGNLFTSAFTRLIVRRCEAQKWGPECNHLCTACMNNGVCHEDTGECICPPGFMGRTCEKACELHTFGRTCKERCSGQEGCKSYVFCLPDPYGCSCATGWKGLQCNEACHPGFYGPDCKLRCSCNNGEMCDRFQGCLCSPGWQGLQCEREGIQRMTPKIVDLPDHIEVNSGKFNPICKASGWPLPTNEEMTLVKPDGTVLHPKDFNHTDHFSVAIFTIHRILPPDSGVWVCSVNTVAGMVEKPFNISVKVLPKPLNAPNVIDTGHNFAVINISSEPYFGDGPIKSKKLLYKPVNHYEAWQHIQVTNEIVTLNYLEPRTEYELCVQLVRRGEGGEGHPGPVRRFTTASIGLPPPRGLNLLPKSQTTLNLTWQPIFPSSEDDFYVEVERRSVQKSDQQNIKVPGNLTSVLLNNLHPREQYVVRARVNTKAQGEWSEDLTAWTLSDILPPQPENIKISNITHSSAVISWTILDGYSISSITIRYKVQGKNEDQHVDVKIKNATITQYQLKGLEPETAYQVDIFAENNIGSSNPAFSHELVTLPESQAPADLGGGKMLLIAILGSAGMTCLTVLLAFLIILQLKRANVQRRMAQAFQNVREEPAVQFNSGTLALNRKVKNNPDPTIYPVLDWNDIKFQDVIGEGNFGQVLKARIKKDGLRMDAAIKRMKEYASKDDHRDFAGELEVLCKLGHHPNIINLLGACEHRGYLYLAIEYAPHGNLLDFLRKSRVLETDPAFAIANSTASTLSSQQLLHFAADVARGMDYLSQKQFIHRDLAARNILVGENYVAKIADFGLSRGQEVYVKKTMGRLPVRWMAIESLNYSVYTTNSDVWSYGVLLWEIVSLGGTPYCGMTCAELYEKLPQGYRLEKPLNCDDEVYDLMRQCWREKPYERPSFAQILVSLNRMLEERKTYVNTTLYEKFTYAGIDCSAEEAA
UniProt P37136: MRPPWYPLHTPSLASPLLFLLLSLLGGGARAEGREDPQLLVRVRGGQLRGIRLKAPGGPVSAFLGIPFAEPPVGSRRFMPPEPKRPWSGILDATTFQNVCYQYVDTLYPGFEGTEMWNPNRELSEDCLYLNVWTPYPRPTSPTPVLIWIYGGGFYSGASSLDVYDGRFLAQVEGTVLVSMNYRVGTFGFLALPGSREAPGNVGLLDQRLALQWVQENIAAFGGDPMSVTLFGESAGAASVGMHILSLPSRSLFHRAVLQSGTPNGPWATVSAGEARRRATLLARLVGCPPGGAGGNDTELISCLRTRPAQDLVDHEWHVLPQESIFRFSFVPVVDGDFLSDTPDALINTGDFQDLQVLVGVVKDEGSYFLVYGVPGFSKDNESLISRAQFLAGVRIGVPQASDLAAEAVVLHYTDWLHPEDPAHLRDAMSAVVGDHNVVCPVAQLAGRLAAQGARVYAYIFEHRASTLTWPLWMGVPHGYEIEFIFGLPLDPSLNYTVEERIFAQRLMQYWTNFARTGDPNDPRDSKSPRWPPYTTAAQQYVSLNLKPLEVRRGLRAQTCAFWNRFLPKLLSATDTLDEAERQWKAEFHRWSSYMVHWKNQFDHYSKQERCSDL

Experiments:
[1] = target: Protein deacetylase HDAC6 (Homo sapiens) (UniProt Q9UBN7); assay: NVS_ENZ_hHDAC6: NovaScreen (NVS) Enzymatic Assay for human Histone Deacetylase 6 (HDAC6) (AID 2283164)
In short: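 Recombinant human HDAC6 with fluorescent substrate, 1 h; product separated from substrate by electrophoretic mobility shift. Primary screen in duplicate at 25 uM; actives retested singly in concentration-response up to 50 uM, fitted relative to DMSO.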

[2] = target: human Ephrin type-B Receptor 2 (EphB2), EPHB2 (gene 2048) (UniProt P29323); assay: NVS_ENZ_hEphB2: NovaScreen (NVS) Enzymatic Assay for human Ephrin type-B Receptor 2 (EphB2) (AID 2283156)
In short: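 Recombinant kinase with fluorescent substrate, product separated by electrophoretic mobility shift, read 1 h after dosing. Duplicate 25 uM screen, then singleton concentration-response to 50 uM max; loss of signal versus DMSO.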

[3] = system: rat Monoamine Oxidase, MAO-A, Peripheral (MAOAP), gene 29253; assay: NVS_ENZ_rMAOAP: NovaScreen (NVS) Enzymatic Assay for rat Monoamine Oxidase, MAO-A, Peripheral (MAOAP) (AID 2283237)
In short: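 Rat liver mitochondrial membranes served as the MAO-A source, with enzyme activity measured by radiometric scintillation counting 1.17 hours after dosing. Loss of signal was fitted against DMSO; primary screen used 25 uM in duplicate, follow-up used concentration series.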

[4] = target: rat Monoamine Oxidase, MAO-B, Peripheral (MAOBP), Maob (gene 25750) (UniProt P19643); assay: NVS_ENZ_rMAOBP: NovaScreen (NVS) Enzymatic Assay for rat Monoamine Oxidase, MAO-B, Peripheral (MAOBP) (AID 2283242)
[5] = target: human Ephrin type-A Receptor 2 (EphA2), EPHA2 (gene 1969) (UniProt P29317); assay: NVS_ENZ_hEphA2: NovaScreen (NVS) Enzymatic Assay for human Ephrin type-A Receptor 2 (EphA2) (AID 2283155)
In short: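 Cell-free recombinant EphA2 kinase with specific substrate, 1 h, fluorescence with electrophoretic mobility-shift separation of substrate and product. Primary screen at 25 uM in duplicate; hits retested in singleton concentration-response up to 50 uM, referenced to DMSO.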

[6] = target: human Mitogen-Activated Protein Kinase 1 (MAPK 1), MAPK1 (gene 5594) (UniProt P28482); assay: NVS_ENZ_hMAPK1: NovaScreen (NVS) Enzymatic Assay for human Mitogen-Activated Protein Kinase 1 (MAPK 1) (AID 2283175)
In short: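 Cell-free recombinant human MAPK1 enzymatic assay, fluorescence/electrophoretic mobility shift read at 1 h; loss of signal vs DMSO. Primary screen in duplicate at 25 uM; actives (e.g. ≥30% inhibition) run as concentration-response up to 50 uM.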

[7] = target: human Phosphatase and Tensin Homolog (PTEN), PTEN (gene 5728) (UniProt P60484); assay: NVS_ENZ_hPTEN: NovaScreen (NVS) Enzymatic Assay for human Phosphatase and Tensin Homolog (PTEN) (AID 2283203)
In short: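 Cell-free recombinant human PTEN with fluorescent substrate; product separated by electrophoretic mobility shift and read by fluorescence 1 h after dosing. Primary screen in duplicate at 25 uM, actives followed in concentration series versus DMSO.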

[8] = target: human Fibroblast Growth Factor Receptor 1 (FGFR1), FGFR1 (gene 2260) (UniProt P11362); assay: NVS_ENZ_hFGFR1: NovaScreen (NVS) Enzymatic Assay for human Fibroblast Growth Factor Receptor 1 (FGFR1) (AID 2283159);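 also: hits lower the signal so potencies describe inhibitors of the kinase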
In short: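 Cell-free recombinant kinase with fluorescent substrate, product separated by electrophoretic mobility shift; read 1 hour after dosing, loss of signal relative to DMSO. Initial screen in duplicate at 25 uM, actives followed in concentration series.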

[9] = target: human Protein Tyrosine Phosphatase Non-receptor Type 2 (PTPN2), PTPN2 (gene 5771) (UniProt P17706); assay: NVS_ENZ_hPTPN2: NovaScreen (NVS) Enzymatic Assay for human Protein Tyrosine Phosphatase Non-receptor Type 2 (PTPN2) (AID 2283207)
In short: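 Cell-free recombinant enzyme with fluorescent substrate, product separated by electrophoretic mobility shift; read 1 h after dosing. Primary screen single concentration (25 uM) in duplicate; actives followed in concentration series; loss of signal versus DMSO.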

[10] = target: rat Corticotropin Releasing Factor Receptor (CRF), Crhr1 (gene 58959) (UniProt P35353); assay: NVS_GPCR_rCRF: NovaScreen (NVS) G Protein-Coupled Receptor Assay for rat Corticotropin Releasing Factor Receptor (CRF) (AID 2283300)
In short: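 Rat cortical membranes used as receptor source in a radioligand competitive displacement binding assay; scintillation read 2 h after dosing. Primary screen run in duplicate at 25 uM; loss of signal versus DMSO baseline indicates binding.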

[11] = target: rat Neurotensin Receptor (NTS), Ntsr1 (gene 366274) (UniProt P20789); assay: NVS_GPCR_rNTS: NovaScreen (NVS) G Protein-Coupled Receptor Assay for rat Neurotensin Receptor (NTS) (AID 2283308)
In short: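 Rat forebrain membranes; radioligand binding with competitive displacement, read by filter-based scintillation counting 1 h after dosing. Primary screen in duplicate at 25 uM; actives (e.g., 30% inhibition) rerun in concentration-response up to 50 uM, loss-of-signal versus DMSO.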

[12] = target: rat Monoamine Oxidase, MAO-B, Central (MAOBC), Maob (gene 25750) (UniProt P19643); assay: NVS_ENZ_rMAOBC: NovaScreen (NVS) Enzymatic Assay for rat Monoamine Oxidase, MAO-B, Central (MAOBC) (AID 2283238)
In short: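 MAO-B activity in rat brain tissue preparation, cell-free, measured radiometrically by scintillation counting 1.17 h after dosing. Screened in duplicate at 25 uM; actives then in concentration-response up to 50 uM. Loss of signal versus DMSO scored.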

[13] = target: rat Oxytocin Receptor (OXT), Oxtr (gene 25342) (UniProt P70536); assay: NVS_GPCR_rOXT: NovaScreen (NVS) G Protein-Coupled Receptor Assay for rat Oxytocin Receptor (OXT) (AID 2283330)
In short: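 Radioligand displacement on rat uterine membranes, 1 h incubation, filter-based scintillation counting. Chemicals were screened in duplicate at 25 uM, and those passing threshold were retested in concentration-response up to 50 uM. Loss of binding was fitted versus DMSO.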

[14] = target: human Tyrosine Protein Kinase Receptor Tie-2 (Tie2), TEK (gene 7010) (UniProt Q02763); assay: NVS_ENZ_hTie2: NovaScreen (NVS) Enzymatic Assay for human Tyrosine Protein Kinase Receptor Tie-2 (Tie2) (AID 2283225)
In short: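 Recombinant human Tie2 kinase activity was read cell-free by fluorescence with electrophoretic mobility shift, 1 hour after dosing. The screen used 25 uM in duplicate, then concentration-response up to 50 uM. Signal loss was scored against DMSO.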

[15] = target: rat Acetylcholinesterase (AChE), Ache (gene 83817) (UniProt P37136); assay: NVS_ENZ_rAChE: NovaScreen (NVS) Enzymatic Assay for rat Acetylcholinesterase (AChE) (AID 2283233)
In short: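 Rat brain membrane acetylcholinesterase activity measured colorimetrically 0.33 h after compound addition, loss of signal relative to DMSO. Primary screen in duplicate at 25 uM; actives re-run as concentration-response with 50 uM top concentration.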

## CCCC(=O)OCC
[1]
  AC50: inconclusive: 6.3 µM

## O=C(O)Cc1cc(I)c(Oc2cc(I)c(O)c(I)c2)c(I)c1
[2]
  AC50: inconclusive: 16.8 µM
[3]
  AC50: inconclusive: 28.7 µM
[4]
  AC50: inconclusive: 0.00153 µM

## CC/C(=C(/CC)c1ccc(O)cc1)c1ccc(O)cc1
[5]
  AC50: inconclusive: 0.205 µM
[6]
  AC50: inconclusive: 1.03 µM
[7]
  outcome: inactive

## CC(C)CCCCCCCOC(=O)CCCCC(=O)OCCCCCCCC(C)C
[1]
  AC50: inconclusive: 25 µM
[3]
  AC50: inconclusive: 0.108 µM

## CCCCCCC(=O)O
[1]
  outcome: inactive

## Cc1ccccc1Cl
[8]
  AC50: inconclusive: 25 µM

## CCCCCCCCCCCCc1ccccc1S(=O)(=O)O
[9]
  AC50: active: 19.9 µM

## S=C([S-])NCCNC(=S)[S-].[Mn+2]
[9]
  AC50: active: 0.295 µM
[10]
  AC50: active: 12.5 µM
[11]
  AC50: inconclusive: 1.35 µM

## CCN(CC)CCNc1ccc(CNC=O)c2sc3ccc(OC)cc3c(=O)c12
[3]
  AC50: active: 9.35 µM

## NCc1cccc(C2CCN(C(=O)c3ccc(C#Cc4ccccc4F)o3)CC2)c1
[3]
  AC50: active: 3.57 µM
[12]
  AC50: active: 11.2 µM

## COc1ccc2sc(C(=O)Nc3nnn[nH]3)c(OC(C)C)c2c1
[10]
  AC50: inconclusive: 0.237 µM

## CCCCCCC(C=O)=Cc1ccccc1
[11]
  AC50: inconclusive: 0.075 µM

## CN(Cc1cnc2nc(N)nc(N)c2n1)c1ccc(C(=O)N[C@@H](CCC(=O)O)C(=O)O)cc1
[13]
  AC50: inconclusive: 10.8 µM

## CC[C@H](C)C(=O)O[C@H]1C[C@H](O)C=C2C=C[C@H](C)[C@H](CC[C@@H](O)C[C@@H](O)CC(=O)O)[C@H]21
[14]
  outcome: inactive

## NC(=O)Cn1c(=O)cc(CCN2CCN(c3nccc4sccc34)CC2)c2ccc(F)cc21
[15]
  outcome: inactive
